Record: PubChem BioAssay AID1259425 (University of Nebraska Medical Center, 2018)
Assay: 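Seek colon cancer weak points whose silencing resembles KSR1 loss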 (primary screen). Cell system: HCT116 human colon cancer cells. Knock-down reagent: siRNA pool against human genes, 50 nM siRNA. Measurement: 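After 50 nM siRNA pool, branched-DNA assay measures six marker transcripts per well, minus blank, normalised to the geometric mean of two housekeeping transcripts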. Direction: BNIP3L mRNA: higher = more BNIP3L transcript after knockdown; NDRG1 mRNA: higher = more NDRG1 transcript after knockdown.
The deposit covers about 14,000 reagents; below is an unselected part. Some reagents were tested in more than one well and are listed for each. Further read-outs or replicates are left out here. The record does not give: the time to read-out.

no.	gene	BNIP3L mRNA, set 1	NDRG1 mRNA, set 1
1	FLII (FLII actin remodeling protein)	0.125	0.18
2	CERK (ceramide kinase)	0.116	0.0309
3	ISYNA1 (inositol-3-phosphate synthase 1)	0.085	0.595
4	C10orf88 (chromosome 10 open reading frame 88)	0.141	0.244
5	TBX5 (T-box transcription factor 5)	0.069	0.315
6	CHID1 (chitinase domain containing 1)	0.131	0.349
7	NXPE4 (neurexophilin and PC-esterase domain family member 4)	0.112	0.185
8	HACD1 (3-hydroxyacyl-CoA dehydratase 1)	0.0715	0.1
9	CTBP2 (C-terminal binding protein 2)	0.0918	0.122
10	TWF2 (twinfilin actin binding protein 2)	0.0717	0.206
11	OIP5 (Opa interacting protein 5)	0.127	0.394
12	ARFGAP1 (ARF GTPase activating protein 1)	0.0721	0.0563
13	PHACTR4 (phosphatase and actin regulator 4)	0.114	0.267
14	HPCA (hippocalcin)	0.128	0.14
15	ZNF614 (zinc finger protein 614)	0.0473	0.173
16	TTC28 (tetratricopeptide repeat domain 28)	0.123	0.189
17	COCH (cochlin)	0.112	0.229
18	PLCXD1	0.125	0.329
19	SLC16A7	0.0912	0.166
20	OPN1SW (opsin 1, short wave sensitive)	0.259	0.988
21	STARD5 (StAR related lipid transfer domain containing 5)	0.166	0.353
22	SNX11 (sorting nexin 11)	0.137	0.114
23	PLIN3 (perilipin 3)	0.128	0.208
24	CELF6 (CUGBP Elav-like family member 6)	0.0641	0.675
25	BLOC1S6 (biogenesis of lysosomal organelles complex 1 subunit 6)	0.102	0.777
26	SOX4 (SRY-box transcription factor 4)	0.101	0.175
27	COA7 (cytochrome c oxidase assembly factor 7)	0.139	0.133

5 entries from above in another layout:
{"gene":"CERK (ceramide kinase)","BNIP3L mRNA, set 1":0.116,"NDRG1 mRNA, set 1":0.0309}
{"gene":"ISYNA1 (inositol-3-phosphate synthase 1)","BNIP3L mRNA, set 1":0.085,"NDRG1 mRNA, set 1":0.595}
{"gene":"C10orf88 (chromosome 10 open reading frame 88)","BNIP3L mRNA, set 1":0.141,"NDRG1 mRNA, set 1":0.244}
{"gene":"TBX5 (T-box transcription factor 5)","BNIP3L mRNA, set 1":0.069,"NDRG1 mRNA, set 1":0.315}
{"gene":"CHID1 (chitinase domain containing 1)","BNIP3L mRNA, set 1":0.131,"NDRG1 mRNA, set 1":0.349}

Additional records:
no.	gene	BNIP3L mRNA, set 1	NDRG1 mRNA, set 1
28	CP (ceruloplasmin)	0.137	0.247
29	RGS12 (regulator of G protein signaling 12)	0.369	0.429
30	POU4F1 (POU class 4 homeobox 1)	0.0686	0.234
31	SPOCK3	0.146	0.262
32	ID1 (inhibitor of DNA binding 1)	0.132	0.364
33	MICA (MHC class I polypeptide-related sequence A)	0.108	0.0852
34	METTL25B (methyltransferase like 25B)	0.276	0.475
35	PRICKLE3 (prickle planar cell polarity protein 3)	0.174	0.153
36	FRMD8 (FERM domain containing 8)	0.291	0.288
37	INSIG1 (insulin induced gene 1)	0.0455	0.147
38	GSTA4 (glutathione S-transferase alpha 4)	0.111	0.0894
39	CDKN2D (cyclin dependent kinase inhibitor 2D)	0.259	0.598
40	NT5C1A (5'-nucleotidase, cytosolic IA)	0.389	0.236
41	LANCL2 (LanC like glutathione S-transferase 2)	0.116	0.135
42	DEFA1 (defensin alpha 1)	0.0937	0.154
43	CLCN5 (Cl-/H+ antiporter 5)	0.0564	0.055
44	SLCO5A1	0.162	0.244
45	LMNA (lamin A/C)	0.0954	0.3
46	TNFRSF17 (TNF receptor superfamily member 17)	0.0825	0.155
47	TARBP2 (TARBP2 subunit of RISC loading complex)	0.197	0.0939
48	OLFM1 (olfactomedin 1)	0.0959	0.236
49	OLFM1 (olfactomedin 1)	0.116	0.259
50	PAK1 (p21 (RAC1) activated kinase 1)	0.221	0.291
